PubChem BioAssay AID1259299, Sanger Institute – 2017
The whole screen tested 794 reagents; below is a part drawn at random. 9 of them (1.1%) were called active. 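Calls rest on knock-down alone; synergy scores play no part in calls, and no gene passed the synergy cut.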 Unmarked entries are inactive. No viability above 1 is reported: the scale is capped. Reagent sequences are not shown. Not stated in the record: the amount of reagent, the time to read-out.

Test: 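Knock-down screen of kinome and colorectal mutation genes alongside three targeted drugs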 (primary screen)
System: human CAR1 colorectal cancer cells
Knock-down reagent: siRNA pool against human genes
Challenge: anchor drug BYL719 1 µM, cetuximab 5 µg/ml or trametinib 10 nM, or DMSO vehicle alone; exposure length not given
Read-out: 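Mean replicate viability versus non-targeting controls, turned into robust z-scores, plus drug synergy scores for BYL719, cetuximab and trametinib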
Scale: viability robust z-score, knock-down alone and viability, knock-down alone (DMSO): higher = more viable cells; synergy score with BYL719 and synergy score with cetuximab and synergy score with trametinib: higher = stronger synergy with drug (synthetic lethal)
Rule for the call: 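a gene is called essential if its knock-down-alone viability z-score drops under -3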
Calls: active = essential (knock-down alone); inactive = no change

| target | viability robust z-score, knock-down alone | viability, knock-down alone (DMSO) (fraction of control) | synergy score with BYL719 | synergy score with cetuximab | synergy score with trametinib |
| --- | --- | --- | --- | --- | --- |
| OBSCN | 0.789 | 1 | -0.206 | -0.073 | -0.0773 |
| NME4 | 0.789 | 1 | -0.164 | -0.073 | -0.114 |
| GATA3 | -0.237 | 0.905 | -0.113 | -0.115 | -0.189 |
| HUNK | -1.33 | 0.804 | -0.138 | -0.0452 | -0.00808 |
| CDKN1B | 0.789 | 1 | -0.119 | -0.0692 | -0.0752 |
| WNK4 | -0.0741 | 0.92 | -0.2 | -0.0683 | -0.118 |
| MAPK13 | 0.789 | 1 | -0.206 | -0.00321 | 0.0117 |
| JAK2 | -6.02 (active) | 0.371 | -0.162 | -0.221 | -0.0865 |
| ULK1 | 0.157 | 0.942 | -0.181 | -0.0237 | -0.123 |
| PIP4K2A | 0.789 | 1 | -0.206 | -0.073 | -0.149 |
| CDK4 | -0.928 | 0.841 | -0.142 | -0.108 | 0.00957 |
| RIOK3 | 0.609 | 0.983 | -0.00874 | -0.0317 | -0.0471 |
| FOXP1 | -0.601 | 0.872 | -0.0577 | 0.0582 | 0.0312 |
| MAP3K12 | 0.789 | 1 | -0.0936 | -0.0502 | -0.177 |
| MED12 | 0.743 | 0.996 | -0.0223 | -0.077 | -0.000847 |
| CAMK2G | -1.61 | 0.778 | -0.18 | -0.197 | -0.149 |
| PIP5K1B | 0.789 | 1 | -0.00302 | -0.073 | 0.061 |
| PIK3C2B | 0.341 | 0.959 | -0.186 | -0.0157 | 0.00906 |
| TWF1 | 0.265 | 0.952 | -0.117 | -0.118 | -0.232 |
| CIB2 | -0.232 | 0.906 | -0.273 | -0.0856 | -0.139 |
| MAPK4 | -2.34 | 0.711 | -0.0886 | -0.0913 | -0.0536 |
| CDK18 | 0.789 | 1 | -0.157 | -0.073 | -0.0069 |
| MPP1 | 0.789 | 1 | -0.0935 | -0.073 | 0.0358 |
| ELF3 | -2.27 | 0.718 | -0.0992 | -0.0523 | 0.0139 |
| BRD3 | 0.789 | 1 | -0.202 | -0.073 | -0.174 |
| PANK3 | 0.789 | 1 | -0.173 | -0.0588 | -0.0754 |
| MAP3K13 | 0.789 | 1 | -0.0711 | -0.073 | -0.126 |
| PKN2 | 0.269 | 0.952 | -0.0111 | -0.0869 | -0.00422 |
| PRKD3 | -1.05 | 0.83 | -0.0992 | -0.153 | -0.223 |
| PRKD1 | 0.16 | 0.942 | -0.0746 | -0.0992 | -0.184 |
| BRAF | -3.27 (active) | 0.625 | -0.141 | -0.203 | -0.0433 |
| PI4K2B | -1.3 | 0.807 | -0.197 | -0.206 | -0.0905 |
| NEK2 | -0.801 | 0.853 | -0.137 | -0.0324 | -0.0193 |
| PSKH1 | 0.789 | 1 | -0.183 | -0.035 | -0.208 |
| KSR2 | 0.789 | 1 | -0.169 | -0.0663 | -0.113 |
| PFKL | 0.297 | 0.955 | -0.0841 | -0.0972 | -0.178 |
| ERBB4 | -0.325 | 0.897 | -0.13 | -0.0321 | -0.0821 |
| PRAG1 | -1.38 | 0.8 | -0.000435 | -0.0974 | 0.0578 |
| IGF2R | 0.789 | 1 | -0.178 | -0.073 | -0.18 |
| TSSK2 | -0.327 | 0.897 | -0.0437 | -0.0711 | -0.0509 |
| EPHA2 | 0.789 | 1 | -0.126 | -0.073 | -0.12 |
| CDK3 | -0.0674 | 0.921 | -0.0969 | -0.0536 | -0.239 |
| AURKA | -3.65 (active) | 0.59 | -0.188 | -0.0664 | -0.128 |
| PI4KA | -0.255 | 0.904 | 0.0272 | -0.0214 | 0.177 |
| EGFR | 0.49 | 0.972 | -0.112 | -0.0141 | -0.0609 |
| PIP5K1C | -1.19 | 0.817 | -0.147 | -0.124 | -0.103 |
| FASTK | -0.118 | 0.916 | -0.183 | -0.0919 | -0.0606 |
| GNAS | -0.118 | 0.916 | -0.065 | -0.0446 | -0.0204 |
| NR2F2 | -0.351 | 0.895 | -0.0961 | -0.12 | -0.0596 |
| DCLK2 | 0.789 | 1 | -0.0311 | 0.0991 | -0.084 |
